PubChem BioAssay AID1259405, NCATS | 2018

- Aim: 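Silenced genes that increase secreted GFP made by CHO cells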 (primary screen)
- Cells: Chinese hamster CHO-K1 ovary cells with stable secreted eGFP expression
- Reagent: single siRNA against mouse genes, 0.8 pmol siRNA per well (2 µl of 400 nM stock)
- Timing: 3 days
- Read-out: 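Percent of the per-plate non-targeting control median for intracellular GFP per well by laser scanning cytometry and for cell viability by ATP luminescence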
- Scale: GFP, % of control: higher = more GFP per well, higher productivity; viability (ATP), % of control: higher = more viable cells (more ATP)
- Active means: 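Called active when intracellular GFP, relative to negative control, is at or above 120%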
Shown is an unselected part of about 50,000 deposited reagents. About 4,000 of them (8%) were called active. 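Mouse siRNA library applied to hamster cells; one well for each siRNA.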 The numbers tell different reagents against one gene apart.

| gene | reagent | GFP, % of control | viability (ATP), % of control | Call |
| --- | --- | --- | --- | --- |
| Rtn4ip1 (reticulon 4 interacting protein 1) | 1 | 69.5 | 81.1 | inactive |
| Rtn4ip1 (reticulon 4 interacting protein 1) | 2 | 101 | 80.5 | inactive |
| Rtn4ip1 (reticulon 4 interacting protein 1) | 3 | 68.1 | 66 | inactive |
| Strn3 (striatin, calmodulin binding protein 3) | 1 | 53.5 | 74.6 | inactive |
| Strn3 (striatin, calmodulin binding protein 3) | 2 | 73.2 | 90.7 | inactive |
| Strn3 (striatin, calmodulin binding protein 3) | 3 | 164 | 158 | active |
| Tram1 (translocating chain-associating membrane protein 1) | 1 | 63 | 50.6 | inactive |
| Tram1 (translocating chain-associating membrane protein 1) | 2 | 95.6 | 102 | inactive |
| Tram1 (translocating chain-associating membrane protein 1) | 3 | 81.8 | 66.3 | inactive |
| Ccr1 (C-C motif chemokine receptor 1) | 1 | 83.3 | 70.8 | inactive |
| Ccr1 (C-C motif chemokine receptor 1) | 2 | 85.1 | 62.3 | inactive |
| Ccr1 (C-C motif chemokine receptor 1) | 3 | 98.2 | 94.1 | inactive |
| Axl (AXL receptor tyrosine kinase) | 1 | 95.9 | 58.9 | inactive |
| Axl (AXL receptor tyrosine kinase) | 2 | 80.2 | 57.5 | inactive |
| Axl (AXL receptor tyrosine kinase) | 3 | 138 | 63.3 | active |
| Agbl2 (ATP/GTP binding protein-like 2) | 1 | 63.5 | 87.7 | inactive |
| Agbl2 (ATP/GTP binding protein-like 2) | 2 | 86.3 | 123 | inactive |
| Agbl2 (ATP/GTP binding protein-like 2) | 3 | 107 | 130 | inactive |
| Ptgfrn (prostaglandin F2 receptor negative regulator) | 1 | 69 | 89.4 | inactive |
| Ptgfrn (prostaglandin F2 receptor negative regulator) | 2 | 22.3 | 28 | inactive |
| Ptgfrn (prostaglandin F2 receptor negative regulator) | 3 | 41.8 | 45.7 | inactive |
| Or5ak22 (olfactory receptor family 5 subfamily AK member 22) | 1 | 115 | 45.3 | inactive |
| Or5ak22 (olfactory receptor family 5 subfamily AK member 22) | 2 | 94.8 | 68.6 | inactive |
| Or5ak22 (olfactory receptor family 5 subfamily AK member 22) | 3 | 47.5 | 45.9 | inactive |
| Tmem202 (transmembrane protein 202) | 1 | 99.6 | 93.1 | inactive |
| Tmem202 (transmembrane protein 202) | 2 | 80.3 | 79.1 | inactive |
| Tmem202 (transmembrane protein 202) | 3 | 62.5 | 94.9 | inactive |
| Tagln2 (transgelin 2) | 1 | 65.6 | 63.1 | inactive |
| Tagln2 (transgelin 2) | 2 | 105 | 64.1 | inactive |
| Tagln2 (transgelin 2) | 3 | 56.6 | 40.7 | inactive |
| Pigq (phosphatidylinositol glycan anchor biosynthesis, class Q) | 1 | 83.8 | 153 | inactive |
| Pigq (phosphatidylinositol glycan anchor biosynthesis, class Q) | 2 | 59.9 | 77.6 | inactive |
| Pigq (phosphatidylinositol glycan anchor biosynthesis, class Q) | 3 | 0.341 | 96.3 | inactive |
| Agpat1 (1-acylglycerol-3-phosphate O-acyltransferase 1) | 1 | 103 | 64.1 | inactive |
| Agpat1 (1-acylglycerol-3-phosphate O-acyltransferase 1) | 2 | 145 | 136 | active |
| Agpat1 (1-acylglycerol-3-phosphate O-acyltransferase 1) | 3 | 115 | 99 | inactive |
| Castor2 (cytosolic arginine sensor for mTORC1 subunit 2) | 1 | 57.4 | 75.8 | inactive |
| Castor2 (cytosolic arginine sensor for mTORC1 subunit 2) | 2 | 36.1 | 24.4 | inactive |
| Castor2 (cytosolic arginine sensor for mTORC1 subunit 2) | 3 | 34.7 | 53.1 | inactive |
| Zfp426 (zinc finger protein 426) | 1 | 50.9 | 73 | inactive |
| Zfp426 (zinc finger protein 426) | 2 | 53.8 | 52.4 | inactive |
| Zfp426 (zinc finger protein 426) | 3 | 78 | 105 | inactive |

4 neighbouring entries already listed, for reference:
| gene | reagent | GFP, % of control | viability (ATP), % of control | Call |
| --- | --- | --- | --- | --- |
| Ptgfrn (prostaglandin F2 receptor negative regulator) | 2 | 22.3 | 28 | inactive |
| Ptgfrn (prostaglandin F2 receptor negative regulator) | 3 | 41.8 | 45.7 | inactive |
| Or5ak22 (olfactory receptor family 5 subfamily AK member 22) | 1 | 115 | 45.3 | inactive |
| Or5ak22 (olfactory receptor family 5 subfamily AK member 22) | 2 | 94.8 | 68.6 | inactive |

Further entries follow.
| gene | reagent | GFP, % of control | viability (ATP), % of control | Call |
| --- | --- | --- | --- | --- |
| Ipo5 (importin 5) | 1 | 122 | 80.9 | active |
| Ipo5 (importin 5) | 2 | 58.7 | 59.9 | inactive |
| Ipo5 (importin 5) | 3 | 96.8 | 92.9 | inactive |
| Tbr1 (T-box brain transcription factor 1) | 1 | 52.2 | 64.2 | inactive |
| Tbr1 (T-box brain transcription factor 1) | 2 | 71.5 | 55.1 | inactive |
| Tbr1 (T-box brain transcription factor 1) | 3 | 58 | 65.1 | inactive |
| Zc3h18 (zinc finger CCCH-type containing 18) | 1 | 114 | 69.5 | inactive |
| Zc3h18 (zinc finger CCCH-type containing 18) | 2 | 49.8 | 87.9 | inactive |
| Zc3h18 (zinc finger CCCH-type containing 18) | 3 | 122 | 113 | active |
| Tppp (tubulin polymerization promoting protein) | 1 | 59.3 | 74.1 | inactive |
| Tppp (tubulin polymerization promoting protein) | 2 | 78.9 | 87.1 | inactive |
| Tppp (tubulin polymerization promoting protein) | 3 | 37.7 | 45.5 | inactive |
| Fam13a (family with sequence similarity 13, member A) | 1 | 88.4 | 90.4 | inactive |
| Fam13a (family with sequence similarity 13, member A) | 2 | 123 | 94.6 | active |
| Fam13a (family with sequence similarity 13, member A) | 3 | 167 | 79.9 | active |
| Pgm1 (phosphoglucomutase 1) | 1 | 66.9 | 81 | inactive |
| Pgm1 (phosphoglucomutase 1) | 2 | 106 | 77.9 | inactive |
| Pgm1 (phosphoglucomutase 1) | 3 | 68.3 | 71.9 | inactive |
| Tas2r125 (taste receptor, type 2, member 125) | 1 | 18.3 | 32.2 | inactive |
| Tas2r125 (taste receptor, type 2, member 125) | 2 | 65.2 | 65.9 | inactive |
| Tas2r125 (taste receptor, type 2, member 125) | 3 | 94.5 | 71.5 | inactive |
| Gpalpp1 (GPALPP motifs containing 1) | 1 | 81.4 | 102 | inactive |
| Gpalpp1 (GPALPP motifs containing 1) | 2 | 45.1 | 70.2 | inactive |
| Gpalpp1 (GPALPP motifs containing 1) | 3 | 83.7 | 83.6 | inactive |
| Muc15 (mucin 15) | 1 | 64.4 | 86.8 | inactive |
| Muc15 (mucin 15) | 2 | 150 | 73 | active |
| Muc15 (mucin 15) | 3 | 55.2 | 38.2 | inactive |
| Chmp1b (charged multivesicular body protein 1B) | 1 | 51.4 | 74.1 | inactive |
| Chmp1b (charged multivesicular body protein 1B) | 2 | 69.9 | 75.5 | inactive |
| Chmp1b (charged multivesicular body protein 1B) | 3 | 128 | 34.4 | active |
| Itga11 (integrin alpha 11) | 1 | 36.6 | 64.7 | inactive |
| Itga11 (integrin alpha 11) | 2 | 65 | 73.5 | inactive |
| Itga11 (integrin alpha 11) | 3 | 95.1 | 81.6 | inactive |
| Mysm1 (myb-like, SWIRM and MPN domains 1) | 1 | 77.4 | 74.7 | inactive |
| Mysm1 (myb-like, SWIRM and MPN domains 1) | 2 | 137 | 91.6 | active |
| Tom1 (target of myb1 trafficking protein) | 1 | 68.6 | 75.5 | inactive |
| Tom1 (target of myb1 trafficking protein) | 2 | 61.9 | 73.9 | inactive |
| Tom1 (target of myb1 trafficking protein) | 3 | 58.2 | 108 | inactive |
| Rab10 (RAB10, member RAS oncogene family) | 1 | 95.8 | 87.7 | inactive |
| Rab10 (RAB10, member RAS oncogene family) | 2 | 63.1 | 87.7 | inactive |
| Rab10 (RAB10, member RAS oncogene family) | 3 | 70.7 | 68.8 | inactive |
| Hoxa6 (homeobox A6) | 1 | 71 | 62 | inactive |
| Hoxa6 (homeobox A6) | 2 | 100 | 69.9 | inactive |
| Hoxa6 (homeobox A6) | 3 | 72.1 | 103 | inactive |
